Patent US20170056422A1, “PLASMODIUM LIVER-STAGE INHIBITORS AND RELATED METHODS” (Seattle Biomedical Research Institute, priority 2014, published 2017)
For part of these data: The name of at least one read-out is uncertain. For part of these data: At least one structure is not confirmed: it was looked up by name or label, or the drawing left a doubt. Some entries share one result that the patent states for a list of compounds.

Assays:
[1] = reportedly; cited from earlier work
[2] = tested on: P. yoelii LS parasites; test: Quantification of LS parasites in P. yoelii-infected Hepa 1-6 cells by manual counting; format: cell-based, Plasmodium yoelii; details: for reduction of LS parasites: 100 nM, drug alone
Description: Quantification of LS parasites after ABT-737, ABT-199, Obatoclax, Nutlin-3, or Serdemetan treatment by manual counting. In all, 1.5×10^5 Hepa 1-6 cells were seeded in DMEM complete medium in each well of an eight-well Permanox slide. Cells were infected with 5×10^4 P. yoelii sporozoites. Slides were centrifuged for 3 min at 515× g in a hanging-bucket centrifuge to aid in sporozoite invasion. After 90 min, we removed media that contained sporozoites that had not infected the cells and added fresh media only, or media containing ABT-737 (100 nM), ABT-199 (100 nM), Obatoclax (100 nM), Nutlin-3 (20 μM), or Serdemetan (10 μM) with or without qVD-OPh (20 μM). We allowed LSs to develop for 24 hours or 48 hours, at which time cells were fixed with 4% paraformaldehyde, blocked, and permeabilized for 1 hour in PBS with the addition of 0.1% Triton X-100 and 2% BSA. Staining steps were performed in PBS supplemented with 2% BSA. We stained cells using anti-sera to Plasmodium HSP70 and UIS4 proteins at 4° C. overnight and then washed several times, and antibodies were visualized with the use of AlexaFluor-488 goat anti-mouse and AlexaFluor-594 goat anti-rabbit secondary antibody (Life Technologies, Grand Island, N.Y., USA). We used DAPI stain to visualize both hepatocyte and parasite nuclei. Sporozoites that had not invaded and/or developed in hepatoma cells were distinguished by UIS4 circumferential staining and morphology. All LS parasites in each well were counted, and each assay was performed in biological triplicate.

[3] = tested on: P. falciparum; details: 10 mg/kg/day for three days, all time points
[4] = tested on: p53; test: Quantification of p53 by Western blotting in Hepa 1-6 cells; format: cell-based; details: immunoblot, 24 or 48 hours
Description: Quantification of p53 by Western Blotting. We plated 10^6 Hepa 1-6 cells per well of a 6-well plate in DMEM complete media and treated with complete media only, 20 μM Nutlin-3, 100 nM ABT-737, 100 nM Obatoclax, or 10 μM Serdemetan for 24 or 48 hours. Cells were lysed in SDS lysis buffer (2% SDS, 50 mM Tris-HCl, 5% glycerol, 5 mM EDTA, 1 mM NaF, 10 mM β-glycerophosphate, 1 mM PMSF, 1 mM activated Na3VO4, 1 mM DTT, 1% phosphatase inhibitor cocktail 2; Sigma-Aldrich), 1% PhosSTOP Phosphatase Inhibitor Cocktail Tablet (Roche), filtered overnight at 3000 rpm through AcroPrep Advance Filter Plates (Pall Corporation) and stored at −80° C. Western blots were performed according to manufacturer instruction with the iBlot Dry Transfer System (Life Technologies, Carlsbad, Calif., USA) using an antibody to p53 (Clone 1C12; Cell Signaling Technology) and then normalized to signal from an anti-β-actin (Cell Signaling Technology) Western blot. Signals from immunoblots were detected using either an Alexa 680-conjugated anti-rabbit antibody or an Alexa 800-conjugated anti-mouse antibody (LI-COR Biosciences). Membranes were visualized using an Odyssey infrared imaging system (LI-COR Biosciences).

[5] = tested on: P. yoelii; test: Nutlin-3 and Obatoclax in vivo, blood stage patency in BALB/cJ mice; details: Nutlin-3 200 mg/kg twice daily, Obatoclax 5 mg/kg once daily; 1000 or 100 spz i.v.
Description: Nutlin-3 and Obatoclax in vivo experiments. 60 BALB/cJ mice (Jackson Laboratory, Bar Harbor, Me., USA) were treated with either vehicle control 5 mg/kg of Obatoclax, 200 mg/kg Nutlin-3, or both Obatoclax and Nutlin-3 by oral gavage once (Obatoclax) or twice (Nutlin-3) daily for 3 days. On the second day of treatment, mice were injected with 1000 or 100 P. yoelii sporozoites. Patency was checked by Giemsa-stained thin blood smear daily for the first 7 days, then every other day until day 14. Animal handling was conducted according to the Institutional Animal Care and Use Committee-approved protocols.

In the case of c1ccc2c(CCNc3ccc(Nc4ccncc4)cc3)c[nH]c2c1 [Serdemetan], the “bioavailability compared with Nutlin-3” value [1] is listed as “increased bioavailability”.

In the case of CN(C)CC[C@H](CSc1ccccc1)Nc1ccc(S(=O)(=O)NC(=O)c2ccc(N3CCN(Cc4ccccc4-c4ccc(Cl)cc4)CC3)cc2)cc1[N+](=O)[O-] [ABT-737], the “reduction of LS parasites” value ([2]; 24 hours) is reported as 80-85% and the “reduction of LS parasites” value ([2]; 48 hours) is reported as 80-85%.

For O=C1C(O)=C([C@H]2CC[C@H](c3ccc(Cl)cc3)CC2)C(=O)c2ccccc21 [AQ, Atovaquone], the “parasite load (luminescence, IVIS)” value [3] was “near the limit of detection”.

With COC1=CC(c2cc3ccccc3[nH]2)=N/C1=C\c1[nH]c(C)cc1C [Obatoclax] the “reduction of LS parasites” value ([2]; 24 hours) was 80-85%, the “reduction of LS parasites” value ([2]; 48 hours) was 80-85% and the “effect of adding pan-caspase inhibitor qVD-OPh on the LS reduction by the drug” value ([2]; qVD-OPh 20 μM) was “almost completely reversed”. The p53 protein levels [4] was “do not increase p53 levels” and the onset of patency [5] was “delay in the onset of patency”.
